Results reported in PubChem BioAssay AID1508600 (Functional Genomics Laboratory (NCATS/FGL), 2020).
About 3,700 (7%) of roughly 53,000 sequences were called active.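 How the source made its calls: active means gene knockdowns whose robust z-score for IL-1 alpha signal is at least 2 or at most -2, so actives lie on both sides; inactive means the rest.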 This is one part of the list.

Experiment: Components of the Cytosolic LPS Sensing Pathway: Gene Identification via Genome-wide siRNA Screen;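 further: robust z of the log signal after scaling to non-targeting control siRNA wells of the plate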
Settings: RAW264.7 macrophages, IL-1a HTRF, actives lie on both sides, screened at 100 nM (by protocol), cells primed 5 h with Pam3CSK4 first
Summary of the method: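 RAW264.7 mouse macrophages reverse-transfected with single siRNAs (100 nM final) for 48h, primed with Pam3CSK4 for 5 hours, then transfected with LipidA for 24 hour. Supernatant IL-1a read by HTRF; values normalized to negative-control median, log-transformed robust z-scores.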

Row | Sequence | z-score
1 | GGAACCUCAUGUCUCACCUTT against Vegfb | inactive: -0.661
2 | AUCAGUUUCCCUGAAAAGGTT against Pnma1 | inactive: 0.457
3 | GCUUAGACGACUAGACCUGTT against Slit2 | inactive: -0.186
4 | GGGUUUCAAAAACAAACCATT against Phtf1 | inactive: 0.378
5 | GGUUUCCAUCUGAAUAAAATT against Pgap6 | inactive: 0.279
6 | GGGCUUCUUCCUCGUCUCUTT against Ido1 | inactive: -0.949
7 | GGUUUUUAACUCAAUGUAGTT against Midn | inactive: -0.785
8 | CCGACAGACUCACAUACUGTT against Trex1 | inactive: -0.942
9 | GGGAAGAGUGAGGAUACGGTT against Mrps34 | inactive: -0.415
10 | GGCACUGAAUUCAGUGGCUTT against Slc22a19 | inactive: 0.331
11 | CCUAAUGCAGUCCAGAUGGTT against Ccdc116 | inactive: -0.641
12 | GGUACAUGGCCAUUGUCCATT against Tacr2 | inactive: -0.584
13 | GGAAUGAAGCCUGAACAGATT against Strc | inactive: 0.151
14 | GGUUUUCAGCUAUCCUUGUTT against Tmem80 | inactive: -0.888
15 | GGACACAACAAGUCUUAUGTT against Prg2 | inactive: -0.876
16 | GCAGGUACUAAGGUUCCUGTT against Apobec3 | inactive: 1.04
17 | GGAUUUGAAACAGAAAGAATT against Pde7a | inactive: -1.03
18 | CCUUAAGCACCAUAAAUUATT against Kifbp | inactive: 1.92
19 | GGGAGUUAGAUCUGUAUAATT against Ccdc172 | inactive: 0.478
20 | GGAGUCAUCGAGUUUCGAGTT against Trem2 | inactive: 1.07
21 | GGCUCGGACCAAAAAAAUUTT against Msantd3 | inactive: -1.33
22 | GCACAAUUUUAUAACUCGGTT against Lrrc49 | inactive: 0.457
23 | GGGAAAGGACAAAAAAAAATT against Rnf41 | inactive: -1.08

Row | Sequence | z-score
24 | GGGACUUUUAAACUUGAACTT against Ube2n | inactive: 0.434
25 | GGCUGUCUUGAUUUUGAUUTT against C3ar1 | inactive: 0.296
26 | GGACAAGCAACGUAUGUUCTT against Cenpq | inactive: 0.164
27 | GCGGAAGUCGAAUCUGUCUTT against Aga | inactive: -1.45
28 | GCUGAACAAUUUUCAACAATT against Sclt1 | inactive: -0.958
29 | GCCUGUUACGUCAUCAAGATT against Gkn2 | inactive: 0.638
30 | GGAGAACAAGAUCUUACAGTT against Cby2 | inactive: -0.703
31 | CGAUUAUCCAGAGUGGAGCTT against Ankrd28 | inactive: 0.792
32 | GGACAUCUAUCAGUUUCUUTT against Tnfrsf21 | inactive: 0.806
33 | GGAACUGCUGUGGAGAAAGTT against Smg5 | inactive: -0.885
34 | GCUAGCGAUAACAAGAUUGTT against Hfm1 | inactive: -0.676
35 | GGGAUUACCUCCAGACACATT against Ccdc88c | inactive: 0.0678
36 | GGUUCGAAAACUCAGCAAUTT against Drd3 | inactive: 0.881
37 | GGAAGGUGAUGCACUAUUATT against B3galnt2 | inactive: 0.828
38 | GGGUCUGGUGUUAUAUUUGTT against Slc26a10 | inactive: 0.0373
39 | GGCAAAGCUGCUCUUUUCUTT against Dnttip1 | inactive: -1.23
40 | GGGUUAGUCUGUUAGAUCATT against Snhg16 | inactive: 0.0541
41 | GGGACAUGAGGAUUUGUCUTT against Six4 | inactive: 0.359
42 | GUACUGAGCAAGAUGCUGGTT against Sox18 | inactive: -1.74
43 | GGAUCAAGGCUGCUGUUCCTT against Pgk1 | inactive: 1.98
44 | CCACCUGAUGAGUUUACCGTT against Lrriq4 | inactive: 0.427
45 | GGUGGUGCCAAGAUGUUGUTT against Aste1 | active: 2.26
46 | GGGAAGAGUUGGAUCGAUCTT against Shkbp1 | inactive: -0.0675

Row | Sequence | z-score
47 | CCUGCUUCUCUACAACCAUTT against Olfr1209 | inactive: -0.817
48 | GGCUAAAAUAAGCAAUCUGTT against Optc | inactive: -1.35
49 | GCCCGUCGGAUAUAAGAUUTT against Cd247 | inactive: -0.351
50 | GCCUCAUCGUAUAUAAAAUTT against Atp5mpl | inactive: -1.64
51 | GCCUUUCGAACUUGGUUCGTT against Usp44 | inactive: 0.0967
52 | GGUACUGGAAAGAAAUGAGTT against Exph5 | inactive: 0.356
53 | GGAGAACAACAAAGACAAGTT against Hoxb8 | active: 2.69
54 | GGGUCUUCACUUUGAACCUTT against Adk | inactive: 0.878
55 | GCAUCGAUAUCAGGACAUGTT against Deaf1 | inactive: 1.07
56 | GGGUCCAGUCAAUCAGAAATT against Znhit2 | inactive: -0.382
57 | CCCUUACGGGUUGACCUUGTT against Nop53 | inactive: 0.822
58 | GGGAAGAAUGGACAAAUAATT against Tmem100 | inactive: 1.13
59 | CGUACACCAUUCAAGGUACTT against Kif20a | inactive: -0.589
60 | GGUUCUUGUUUCAUUUUGCTT against Cdnf | inactive: 0.819
61 | GGUCCAAAAAUGGCUUGGCTT against Fabp9 | inactive: 0.656
62 | CCUCAGAUGGAGGUUACUCTT against Inha | inactive: 0.394
63 | GGUAUCACCUUCGUUACUATT against Unk | inactive: -0.74
64 | GGGCCAACCCAGAAAAACATT against Plekha7 | inactive: -0.515
65 | GGUCGGGAAGUGGUAAAACTT against Traf3ip1 | inactive: 0.00227
66 | GGUUGAAAAAGAACAGUGCTT against Bnc1 | inactive: 0.64
67 | GGAUUUCGACAAUAUGAAGTT against Chrnb2 | inactive: -1.8
68 | GGAUGAACGGAGGAAAAUUTT against Sox13 | inactive: -0.354

Copied from the list.
Under z-score, GGAUGAACGGAGGAAAAUUTT against Sox13 has the entry inactive: -0.354
Under z-score, CCUGCUUCUCUACAACCAUTT against Olfr1209 has the entry inactive: -0.817
